Data taken from paper PMC10685607.
Like-named read-outs stand apart in the source and are kept apart here. These are yes or no findings as the source states them, for the method shown. Binding seen in cells or lysates may run through a third protein. Some entries that bind do so weakly or less than the wild type. Blank lines part the entries; values can stand above or below the molecule they belong to.

Protein sequences, listed by entry. Tags and fused reporters are not part of them.
UniProt Q92963: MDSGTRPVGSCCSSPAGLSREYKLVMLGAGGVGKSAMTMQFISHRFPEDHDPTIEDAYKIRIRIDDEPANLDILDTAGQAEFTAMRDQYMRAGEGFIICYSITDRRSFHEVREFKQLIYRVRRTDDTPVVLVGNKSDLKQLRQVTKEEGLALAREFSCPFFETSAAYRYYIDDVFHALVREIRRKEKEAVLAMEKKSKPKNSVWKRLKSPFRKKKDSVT
UniProt Q9UQE7: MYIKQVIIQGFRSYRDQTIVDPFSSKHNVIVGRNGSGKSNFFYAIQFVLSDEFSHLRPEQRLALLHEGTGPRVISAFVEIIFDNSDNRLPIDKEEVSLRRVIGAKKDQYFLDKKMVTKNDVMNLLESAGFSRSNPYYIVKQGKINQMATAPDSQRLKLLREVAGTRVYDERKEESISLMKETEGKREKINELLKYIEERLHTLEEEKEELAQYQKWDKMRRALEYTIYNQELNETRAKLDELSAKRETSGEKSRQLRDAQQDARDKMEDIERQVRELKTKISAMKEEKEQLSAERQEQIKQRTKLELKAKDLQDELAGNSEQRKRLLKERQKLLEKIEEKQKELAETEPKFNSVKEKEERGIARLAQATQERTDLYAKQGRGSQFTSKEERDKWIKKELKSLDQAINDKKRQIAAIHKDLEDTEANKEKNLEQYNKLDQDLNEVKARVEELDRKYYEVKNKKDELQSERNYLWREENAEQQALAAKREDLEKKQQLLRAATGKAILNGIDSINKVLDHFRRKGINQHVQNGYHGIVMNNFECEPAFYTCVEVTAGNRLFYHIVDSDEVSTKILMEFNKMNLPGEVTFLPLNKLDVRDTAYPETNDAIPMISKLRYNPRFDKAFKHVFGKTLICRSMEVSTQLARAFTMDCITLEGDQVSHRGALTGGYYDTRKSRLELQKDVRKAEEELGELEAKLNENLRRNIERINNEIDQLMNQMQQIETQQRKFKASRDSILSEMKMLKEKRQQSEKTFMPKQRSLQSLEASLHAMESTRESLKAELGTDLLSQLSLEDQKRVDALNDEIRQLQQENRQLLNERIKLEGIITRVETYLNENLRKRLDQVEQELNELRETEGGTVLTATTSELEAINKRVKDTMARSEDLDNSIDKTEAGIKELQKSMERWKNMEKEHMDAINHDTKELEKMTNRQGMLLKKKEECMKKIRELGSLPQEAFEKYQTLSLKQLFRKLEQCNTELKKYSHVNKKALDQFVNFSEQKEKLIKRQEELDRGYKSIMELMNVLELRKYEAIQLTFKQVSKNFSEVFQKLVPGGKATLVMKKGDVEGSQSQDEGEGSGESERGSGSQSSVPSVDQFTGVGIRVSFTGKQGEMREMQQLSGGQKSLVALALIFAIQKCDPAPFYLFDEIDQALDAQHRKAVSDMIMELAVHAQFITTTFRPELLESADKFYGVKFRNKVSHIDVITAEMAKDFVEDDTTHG

Assays:
[1] = target: Myc-RIT1 wild-type, expressed in 293T cells (human) (UniProt Q92963); assay: co-IP; lysates (RIPA buffer) of 293T cells co-transfected with Myc-RIT1 (WT, ΔN or ΔC) and Flag-SMC3 plasmids; anti-Myc or anti-Flag antibody, protein A/G-agarose, western blot
[2] = target: Myc-tagged RIT1 (Ras-like-without-CAAX-1), expressed in HCC cells (human) (UniProt Q92963); assay: co-IP; lysates (RIPA buffer) of HCC-LY10, Huh7 and Hep3B cells transfected with Myc-RIT1 plasmid; anti-Myc or anti-SMC3 antibody, 4 °C 16 h, protein A/G-agarose, western blot
[3] = target: RIT1 in HCC-LY10 cells with PDS5 knockdown or control (human) (UniProt Q92963); assay: co-IP; lysates of HCC-LY10 cells with PDS5 knockdown or control; western blot
[4] = target: RIT1 in HCC cells with RIT1 overexpression (human) (UniProt Q92963); assay: co-IP; lysates (RIPA buffer) of Huh7, HCC-LY10 or Hep3B cells with RIT1 overexpression, asynchronous or enriched in mitosis; protein A/G-agarose, western blot
[5] = target: RIT1 in HCC cells with RIT1 overexpression (human) (UniProt Q92963); assay: as above; remark: listed apart in the source

Molecule: Flag-SMC3 (from UniProt Q9UQE7 1-1217)
binding [1]: binds

B1: PDS5 cohesin associated factor A (PDS5A), endogenous (protein, UniProt Q29RF7 1-1337)
chain: MDFTAQPKPATALCGVVSADGKIAYPPGVKEITDKITTDEMIKRLKMVVKTFMDMDQDSEDEKQQYLPLALHLASEFFLRNPNKDVRLLVACCLADIFRIYAPEAPYTSHDKLKDIFLFITRQLKGLEDTKSPQFNRYFYLLENLAWVKSYNICFELEDCNEIFIQLFRTLFSVINNSHNKKVQMHMLDLMSSIIMEGDGVTQELLDSILINLIPAHKNLNKQSFDLAKVLLKRTVQTIEACIANFFNQVLVLGRSSVSDLSEHVFDLIQELFAIDPHLLLSVMPQLEFKLKSNDGEERLAVVRLLAKLFGSKDSDLATQNRPLWQCFLGRFNDIHVPVRLESVKFASHCLMNHPDLAKDLTEYLKVRSHDPEEAIRHDVIVTIITAAKRDLALVNDQLLGFVRERTLDKRWRVRKEAMMGLAQLYKKYCLHGEAGKEAAEKVSWIKDKLLHIYYQNSIDDKLLVEKIFAQYLVPHNLETEERMKCLYYLYASLDPNAVKALNEMWKCQNMLRSHVRELLDLHKQPTSEANCSAMFGKLMTIAKNLPDPGKAQDFVKKFNQVLGDDEKLRSQLELLISPTCSCKQADICVREIARKLANPKQPTNPFLEMVKFLLERIAPVHIDSEAISALVKLMNKSIEGTADDEEEGVSPDTAIRSGLELLKVLSFTHPTSFHSAETYESLLQCLRMEDDKVAEAAIQIFRNTGHKIETDLPQIRSTLIPILHQKAKRGTPHQAKQAVHCIHAIFTNKEVQLAQIFEPLSRSLNADVPEQLITPLVSLGHISMLAPDQFASPMKSVVANFIVKDLLMNDRSTGEKNGKLWSPDEEVSPEVLAKVQAIKLLVRWLLGMKNNQSKSANSTLRLLSAMLVSEGDLTEQKRISKSDMSRLRLAAGSAIMKLAQEPCYHEIITPEQFQLCALVINDECYQVRQIFAQKLHKALVKLLLPLEYMAIFALCAKDPVKERRAHARQCLLKNISIRREYIKQNPMATEKLLSLLPEYVVPYMIHLLAHDPDFTRSQDVDQLRDIKECLWFMLEVLMTKNENNSHAFMKKMAENIKLTRDAQSPDESKTNEKLYTVCDVALCVINSKSALCNADSPKDPVLPMKFFTQPEKDFCNDKSYISEETRVLLLTGKPKPAGVLGAVNKPLSATGRKPYVRSTGTETGSNINVNSELNPSTGNRSREQSSEAAETGVSENEENPVRIISVTPVKNIDPVKNKEINSDQATQGNISSDRGKKRTVTAAGAENIQQKTDEKVDESGPPAPSKPRRGRRPKSESQGNATKNDDLNKPINKGRKRAAVGQESPGGLEAGNAKAPKLQDLAKKAAPAERQIDLQR
binding [5]: binds

The remaining lines, values ahead:

binding [2]: binds | binding [3]: binds | binding [4]: binds
Molecule: structural maintenance of chromosome 3 (SMC3), endogenous (from UniProt Q9UQE7 1-1217)

binding [5]: binds
B2: PDS5 cohesin associated factor B (PDS5B), endogenous (protein, UniProt Q9NTI5 1-1447)
chain: MAHSKTRTNDGKITYPPGVKEISDKISKEEMVRRLKMVVKTFMDMDQDSEEEKELYLNLALHLASDFFLKHPDKDVRLLVACCLADIFRIYAPEAPYTSPDKLKDIFMFITRQLKGLEDTKSPQFNRYFYLLENIAWVKSYNICFELEDSNEIFTQLYRTLFSVINNGHNQKVHMHMVDLMSSIICEGDTVSQELLDTVLVNLVPAHKNLNKQAYDLAKALLKRTAQAIEPYITNFFNQVLMLGKTSISDLSEHVFDLILELYNIDSHLLLSVLPQLEFKLKSNDNEERLQVVKLLAKMFGAKDSELASQNKPLWQCYLGRFNDIHVPIRLECVKFASHCLMNHPDLAKDLTEYLKVRSHDPEEAIRHDVIVSIVTAAKKDILLVNDHLLNFVRERTLDKRWRVRKEAMMGLAQIYKKYALQSAAGKDAAKQIAWIKDKLLHIYYQNSIDDRLLVERIFAQYMVPHNLETTERMKCLYYLYATLDLNAVKALNEMWKCQNLLRHQVKDLLDLIKQPKTDASVKAIFSKVMVITRNLPDPGKAQDFMKKFTQVLEDDEKIRKQLEVLVSPTCSCKQAEGCVREITKKLGNPKQPTNPFLEMIKFLLERIAPVHIDTESISALIKQVNKSIDGTADDEDEGVPTDQAIRAGLELLKVLSFTHPISFHSAETFESLLACLKMDDEKVAEAALQIFKNTGSKIEEDFPHIRSALLPVLHHKSKKGPPRQAKYAIHCIHAIFSSKETQFAQIFEPLHKSLDPSNLEHLITPLVTIGHIALLAPDQFAAPLKSLVATFIVKDLLMNDRLPGKKTTKLWVPDEEVSPETMVKIQAIKMMVRWLLGMKNNHSKSGTSTLRLLTTILHSDGDLTEQGKISKPDMSRLRLAAGSAIVKLAQEPCYHEIITLEQYQLCALAINDECYQVRQVFAQKLHKGLSRLRLPLEYMAICALCAKDPVKERRAHARQCLVKNINVRREYLKQHAAVSEKLLSLLPEYVVPYTIHLLAHDPDYVKVQDIEQLKDVKECLWFVLEILMAKNENNSHAFIRKMVENIKQTKDAQGPDDAKMNEKLYTVCDVAMNIIMSKSTTYSLESPKDPVLPARFFTQPDKNFSNTKNYLPPEMKSFFTPGKPKTTNVLGAVNKPLSSAGKQSQTKSSRMETVSNASSSSNPSSPGRIKGRLDSSEMDHSENEDYTMSSPLPGKKSDKRDDSDLVRSELEKPRGRKKTPVTEQEEKLGMDDLTKLVQEQKPKGSQRSRKRGHTASESDEQQWPEEKRLKEDILENEDEQNSPPKKGKRGRPPKPLGGGTPKEEPTMKTSKKGSKKKSGPPAPEEEEEEERQSGNTEQKSKSKQHRVSRRAQQRAESPESSAIESTQSTPQKGRGRPSKTPSPSQPKKNVRVGRSKQAATKENDSSEEVDVFQGSSPVDDIPQEETEEEEVSTVNVRRRSAKRERR
